Drawing on PubChem BioAssay AID2685 (National Center for Advancing Translational Sciences (NCATS), 2010), this text covers cell number change and AC50 for 38 compounds.

The list shows a part of the results. The main result of the screen is listed elsewhere. These columns were measured beside it and carry no call. The list favours compounds with an active or inconclusive main result. The note in brackets gives the kind of curve behind each potency; many fits are weak.

The test in a line: qHTS Assay for Lipid Storage Modulators in Drosophila S3 Cells.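 On cell number change: cells counted by Cell Tracker Red CMTPX staining in the red channel.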 As to conditions: BODIPY lipid droplet fluorescence, 18-24 h; for cell number change: measured here: cell count max response, cells fed with added oleic acid. The procedure, abridged:
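Drosophila S3 cells got compounds at several concentrations plus oleic acid (400 uM solution). Laser-scanning cytometry with 488 nm excitation read lipid droplets at 500-530 nm and cells at 575-640 nm. Percent activity was relative to 20 uM Triacsin C.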
A general note: qHTS replaces the single test concentration by a dilution series.

Setting [1] is: measured here: lipid fluorescence (Fed channel) AC50, cells fed with added oleic acid.
Where [2] appears, read: measured here: cell number channel AC50, cells fed with added oleic acid.

For orientation: AC50 means the concentration giving half of the maximal activity seen. Turning to `CCOc1ccc(OCC)c(NC(=O)CN(C)S(=O)(=O)c2ccc3nc(C)sc3c2)c1`, the cell number change was -0.286%. The concentration at half-maximal activity (AC50) under setting [1] is 5.17 µM [rising, partial curve].

For the compound `CCNS(=O)(=O)c1ccc2c3c(cccc13)C(=O)N2`, the cell number change was -2.23%. The concentration at half-maximal activity (AC50) under setting [2] was 0.13 µM [falling, full curve, poor fit].

Turning to `Cc1noc(C)c1C(=O)N1CCc2ccccc2C1`, the cell number change was -37%. In addition, the half-maximal activity concentration (AC50) under setting [2] is 0.058 µM [falling, full curve]. In addition, the AC50 under setting [1] was 32.6 µM [falling, partial curve, poor fit].

Take `C=CCn1c(-c2oc3nc(-c4ccccc4)cc(-c4ccccc4)c3c2N)n[nH]c1=S`: the cell number change amounted to 33.1%. The half-maximal activity concentration (AC50) under setting [2] was 1.16 µM [rising, partial curve]. The AC50 under setting [1] was 1.16 µM [rising, full curve].

On to `c1ccc(CSc2nnc(-c3ccncc3)o2)cc1`, for which the cell number change was -7.14%. For the same compound, the AC50 under setting [1] is 20.6 µM [rising, single point].

In the case of `O=C(c1ccc(Cl)c(Cl)c1)N1CCC(=O)N(C(COCc2cccc(C(F)(F)F)c2)Cc2ccccc2)CC1` (stereo not drawn), the cell number change was -6.03%. The AC50 under setting [1] was 6.51 µM [rising, single point].

On to `CCCCN1C(=O)CCC(C(=O)O)C1c1ccc(OC)cc1` (stereo not drawn), for which the half-maximal activity concentration (AC50) is 6.51 µM [falling, single point] under setting [2] and 0.651 µM [falling, single point] under setting [1].

Turning to `Cc1ccc(S(=O)(=O)N2CCn3cccc3C2C)cc1` (stereo not drawn), the cell number change is 8.63%. Further, the half-maximal activity concentration (AC50) under setting [1] is 0.13 µM [falling, full curve, poor fit].

With `Cc1cc(Nc2ccc(Cl)cc2)nc(N2CCOCC2)n1`, the cell number change was determined as 31%. Further, under setting [2], the half-maximal activity concentration (AC50) is 0.082 µM [rising, full curve].

For `COc1ccc(CNc2ccc3c(c2)CCC3)cc1Br`, the cell number change is -21.5%.

`COc1cccc(CC(=O)N2CCC(CCC(=O)Nc3cccc(OC)c3)CC2)c1`: under setting [1], the AC50 is 0.366 µM [rising, partial curve].

As to `COC(=O)CCP(=O)(O)Cc1ccccc1CP(=O)(O)CCC(=O)OC`, the cell number change was -20.5%. The AC50 under setting [1] is 29.1 µM [falling, single point].

On to `c1ccc(-c2cn3nc4c(nc3n2)CCCC4)cc1`, for which the cell number change amounted to 0.0472%. Further, the AC50 under setting [1] was 6.51 µM [rising, single point].

`COc1ccc(/C=N/NC(=O)c2ccn[nH]2)cc1COc1ccc(F)cc1`: the cell number change is -24.3%.

For the compound `c1ccc2c(c1)ncn2-c1ccc(-c2ccnc3ncnn23)cc1`, the cell number change amounted to 54.6%. The concentration at half-maximal activity (AC50) under setting [2] was 5.8 µM [rising, partial curve, poor fit].

For `COc1ccc(OC)c(NC(=O)CCn2cccc2)c1`, the cell number change was determined as 16.5%.

For `Fc1ccc(CNc2nc3ccccc3n3cnnc23)cc1`, the cell number change is -0.737%. Moreover, the half-maximal activity concentration (AC50) under setting [1] is 0.092 µM [rising, full curve, poor fit].

Consider `COc1ccc(CCNC(=O)C(=O)NCC2OCCN2S(=O)(=O)c2ccc(OC)c(OC)c2)cc1` (stereo not drawn), for which the cell number change was -14.7%. The AC50 under setting [1] was 0.82 µM [falling, partial curve].

Take `COCCNC(=O)c1ccccc1NC(=O)Cc1ccccc1`: the cell number change was found to be 6.05%.

Turning to `Cc1ccccc1OCC(=O)NNC(=S)NC(=O)c1ccccc1[N+](=O)[O-]`, the cell number change is -46.1%. Further, the AC50 under setting [2] is 1.03 µM [falling, full curve]. Under setting [1], the half-maximal activity concentration (AC50) is 11.6 µM [falling, partial curve].

On to `COc1cc2c(cc1NC(=O)CSc1nc3cc(Cl)ccc3s1)oc1ccccc12`, for which the cell number change was -47%. For the same compound, under setting [2], the AC50 was 13 µM [falling, partial curve]. Also, under setting [1], the AC50 was 16.4 µM [falling, partial curve].

With `C=C(C)CSc1nnc([C@@H](NC(=O)OC(C)(C)C)C(C)CC)o1` (stereo partly drawn), the cell number change is -17.5%. Also, the half-maximal activity concentration (AC50) under setting [1] is 0.0291 µM [rising, full curve, poor fit].

As for `CCC(Oc1cc(Cl)ccc1Cl)C(=O)NN1C(=O)C2C3CCC(C3=C(C)C)C2C1=O` (stereo not drawn), the cell number change is -40.8%. Besides, the AC50 under setting [2] was 32.6 µM [falling, single point].

In the case of `COCCN(C(=S)Nc1ccc(Cl)cc1OC)C1CCN(C(C)=O)CC1`, the cell number change is 8.49%. For the same compound, under setting [1], the concentration at half-maximal activity (AC50) is 10.3 µM [rising, partial curve, poor fit].

Regarding `COc1ccc(C2C3=C(CCCC3=O)Nc3nc(SCc4ccc(C(=O)O)cc4)nn32)cc1OC` (stereo not drawn), the cell number change worked out at 13.1%. The half-maximal activity concentration (AC50) under setting [1] is 5.17 µM [falling, single point].

With `Cc1cc(C(=O)COC(=O)CNS(=O)(=O)c2ccc3ccccc3c2)c(C)n1-c1ccccc1`, the cell number change was determined as 11.6%. Also, under setting [1], the concentration at half-maximal activity (AC50) was 10.3 µM [rising, single point].

On to `COC(=O)[C@H](Cc1c[nH]c2ccccc12)NC(=O)NCc1ccc(OC)c(OC)c1`, for which the cell number change is 8.38%. Besides, the half-maximal activity concentration (AC50) under setting [1] is 6.51 µM [falling, single point].

Take `Cc1n[nH]c(=O)c2c(NC(=O)CSc3nn(-c4ccccc4)c(=S)s3)oc(C)c12`: under setting [2], the half-maximal activity concentration (AC50) is 2.31 µM [rising, partial curve].

Turning to `Cc1[nH]c(C)c(S(=O)(=O)Nc2ccc(F)cc2Cl)c1C(=O)N1CCCC1`, the half-maximal activity concentration (AC50) under setting [1] is 4.11 µM [rising, single point].

`CCc1nnc(NS(=O)(=O)c2ccc(N=Cc3c(C)[nH]n(-c4ccc(C)cc4)c3=O)cc2)s1`: the cell number change is -4.46%. The AC50 under setting [1] was 18.4 µM [rising, single point].

`CCNC(=S)NNC(=O)Nc1ccccc1`: the cell number change is -4.03%. Moreover, the AC50 under setting [2] is 0.103 µM [falling, full curve, poor fit]. Also, the AC50 under setting [1] was 6.51 µM [falling, single point].

On to `O=C(O)c1ncn(Cc2ccc(Br)cc2)c1C(=O)O`, for which the cell number change was -5.19%. The AC50 under setting [1] is 0.461 µM [falling, full curve, poor fit].

For `O=C(N/N=C/c1ccncc1)c1cnccn1`, the cell number change is 11%. The AC50 under setting [1] was 29.1 µM [rising, single point].

Take `CCOc1ncccc1C(=O)Nc1ncc(C)s1`: the AC50 is, setting by setting: under setting [2], 0.13 µM [rising, partial curve, poor fit]; under setting [1], 0.116 µM [rising, single point].

Turning to `O=C(NCC1CCCN1S(=O)(=O)c1cccs1)c1ccccc1F` (stereo not drawn), the cell number change amounted to 26.1%.

In the case of `Cc1ccc2nc(Nc3ccccc3)c(C=O)c(=O)n2c1`, the cell number change worked out at 4.14%. Also, the AC50 under setting [1] was 29.1 µM [falling, single point].

As for `O=C(c1ccco1)N1CCN(C(=O)c2cn(-c3ccccc3)nc2-c2ccccc2)CC1`, the cell number change is 8.39%. Further, the AC50 under setting [1] is 6.51 µM [rising, single point].

On to `CCOC(=O)Cc1csc(NS(C)(=O)=O)n1`, for which the cell number change is -21.8%. Besides, the AC50 under setting [2] was 0.00461 µM [falling, full curve, poor fit].
